Test results from patent US12134784B2, “Method for preparing intestinal tract cell layer derived from pluripotent stem cell” (PUBLIC UNIVERSITY CORPORATION NAGOYA CITY UNIVERSITY, priority 2018, dated 2024).
For at least one compound, name, drawing or mass did not settle the structure.

Test system: intestinal tract cell layer
Assay: New plane culture system: mRNA expression and membrane resistance (TEER)
Format: cell-based, human
Conditions: 30 μmol/L forskolin in culture medium 7, 7 days; n=1

Compound: C=C[C@@]1(C)CC(=O)[C@]2(O)[C@@]3(C)[C@@H](O)CCC(C)(C)[C@@H]3[C@H](O)[C@H](OC(C)=O)[C@@]2(C)O1 [forskolin]
- expression of intestinal tract marker CDX2 and intestinal stem cell marker LGR5: highly expressed
